No constants are given. Whether binding was seen depends on the method and setting. Binding seen in cells or lysates may run through a third protein. Some entries that bind do so weakly or less than the wild type. Tags and fused reporters may be left off the sequences shown.

By UniProt entry, the sequences of proteins in these tests, tags left out.
UniProt P37238: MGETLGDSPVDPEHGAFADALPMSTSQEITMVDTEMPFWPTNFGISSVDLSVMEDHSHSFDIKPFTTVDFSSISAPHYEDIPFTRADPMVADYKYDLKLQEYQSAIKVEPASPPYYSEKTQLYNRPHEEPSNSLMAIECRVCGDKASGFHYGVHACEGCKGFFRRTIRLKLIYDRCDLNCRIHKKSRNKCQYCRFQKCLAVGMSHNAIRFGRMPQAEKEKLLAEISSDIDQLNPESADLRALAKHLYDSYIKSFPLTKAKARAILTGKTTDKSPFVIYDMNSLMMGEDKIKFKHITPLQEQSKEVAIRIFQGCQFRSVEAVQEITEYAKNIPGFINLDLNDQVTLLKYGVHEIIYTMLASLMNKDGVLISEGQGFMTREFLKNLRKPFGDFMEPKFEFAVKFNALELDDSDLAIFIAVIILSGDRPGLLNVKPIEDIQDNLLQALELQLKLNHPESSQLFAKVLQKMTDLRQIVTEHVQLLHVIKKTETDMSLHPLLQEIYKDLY

This passage reports binding results from article PMC10876960.

For this assay, the target named is T1, FSCN2-Flag (Fscn2-3xFLAG, overexpressed in HEI-OC1 cells) (UniProt Q32M02).
T1 sequence: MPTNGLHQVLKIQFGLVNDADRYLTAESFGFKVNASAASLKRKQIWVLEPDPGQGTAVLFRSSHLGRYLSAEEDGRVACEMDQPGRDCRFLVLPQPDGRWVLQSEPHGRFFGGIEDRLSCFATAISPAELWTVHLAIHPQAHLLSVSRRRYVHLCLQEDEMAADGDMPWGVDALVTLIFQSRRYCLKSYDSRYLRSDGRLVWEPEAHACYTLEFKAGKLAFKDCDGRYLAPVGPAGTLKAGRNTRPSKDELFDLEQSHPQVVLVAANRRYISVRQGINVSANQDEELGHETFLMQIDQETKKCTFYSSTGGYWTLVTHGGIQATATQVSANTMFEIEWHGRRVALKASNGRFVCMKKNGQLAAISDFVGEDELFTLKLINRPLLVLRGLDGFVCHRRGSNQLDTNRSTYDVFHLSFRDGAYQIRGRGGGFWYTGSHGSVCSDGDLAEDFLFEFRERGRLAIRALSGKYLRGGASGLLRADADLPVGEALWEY
Briefly: co-IP; lysate (RIPA buffer with PMSF) of HEI-OC1 cells overexpressing Fscn2-3xFLAG incubated overnight with Anti-DYKDDDDK (Flag) Affinity Gel; acid elution; Western blotting. (In general: In western blotting, separated proteins are transferred to a membrane and probed.)

Consider PPAR-γ (from UniProt P37238 1-505), for which the binding result was “binds”.
